# These are yes or no findings as the source states them, for the method shown. In cells and extracts the contact can be indirect. These calls come from enrichment with a bait or labelling near it, and not all partners need be listed.
# Protein sequences, listed by entry. Tags and fused reporters are not part of them. Lines headed by an entry give the natural chain unless they say otherwise; changes in a name come on top. Residues count along the entry.
# UniProt P16070, residues 21-742: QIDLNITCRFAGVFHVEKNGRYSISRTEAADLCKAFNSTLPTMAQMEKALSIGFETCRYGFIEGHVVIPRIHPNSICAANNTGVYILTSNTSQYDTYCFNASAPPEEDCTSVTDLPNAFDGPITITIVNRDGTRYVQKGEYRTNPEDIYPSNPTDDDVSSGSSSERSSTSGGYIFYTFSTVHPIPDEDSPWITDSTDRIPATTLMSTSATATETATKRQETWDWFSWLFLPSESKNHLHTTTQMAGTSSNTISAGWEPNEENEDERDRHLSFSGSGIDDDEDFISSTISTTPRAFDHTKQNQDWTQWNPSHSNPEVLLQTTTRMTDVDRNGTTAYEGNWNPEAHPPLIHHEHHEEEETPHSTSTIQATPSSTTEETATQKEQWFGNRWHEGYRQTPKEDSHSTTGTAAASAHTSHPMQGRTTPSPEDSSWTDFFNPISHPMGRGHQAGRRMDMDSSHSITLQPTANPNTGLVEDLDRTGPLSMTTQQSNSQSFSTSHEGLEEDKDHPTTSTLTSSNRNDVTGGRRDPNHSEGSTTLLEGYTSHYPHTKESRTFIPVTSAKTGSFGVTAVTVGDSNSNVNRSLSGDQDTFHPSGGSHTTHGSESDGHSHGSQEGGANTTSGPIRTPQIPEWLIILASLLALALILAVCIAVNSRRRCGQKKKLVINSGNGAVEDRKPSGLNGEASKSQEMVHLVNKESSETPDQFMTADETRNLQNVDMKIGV
# UniProt P05556: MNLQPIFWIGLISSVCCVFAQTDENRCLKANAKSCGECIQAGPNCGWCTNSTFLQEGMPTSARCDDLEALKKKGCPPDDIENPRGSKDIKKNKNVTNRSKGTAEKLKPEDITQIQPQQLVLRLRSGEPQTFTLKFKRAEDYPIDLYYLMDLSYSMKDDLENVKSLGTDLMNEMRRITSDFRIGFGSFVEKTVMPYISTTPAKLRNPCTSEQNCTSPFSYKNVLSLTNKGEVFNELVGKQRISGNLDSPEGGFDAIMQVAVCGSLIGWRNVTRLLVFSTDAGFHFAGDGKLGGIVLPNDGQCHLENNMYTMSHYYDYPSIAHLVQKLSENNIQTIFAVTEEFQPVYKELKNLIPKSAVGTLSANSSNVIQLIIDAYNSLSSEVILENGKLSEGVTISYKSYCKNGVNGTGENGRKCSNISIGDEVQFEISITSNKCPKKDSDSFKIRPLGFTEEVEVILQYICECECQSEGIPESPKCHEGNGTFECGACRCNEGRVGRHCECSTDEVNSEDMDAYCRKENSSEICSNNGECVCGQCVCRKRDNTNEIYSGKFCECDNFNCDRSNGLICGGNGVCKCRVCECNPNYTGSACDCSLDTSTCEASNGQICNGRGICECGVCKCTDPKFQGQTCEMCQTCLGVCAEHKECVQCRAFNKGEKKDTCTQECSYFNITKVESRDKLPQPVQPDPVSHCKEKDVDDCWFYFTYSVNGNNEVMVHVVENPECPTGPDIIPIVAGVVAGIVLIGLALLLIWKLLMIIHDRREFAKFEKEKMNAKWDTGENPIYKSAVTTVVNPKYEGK
# Biological target: T1, Kinesin Family Member 3B (human (endogenous in ESCC cells)) (UniProt O15066)
# T1 sequence: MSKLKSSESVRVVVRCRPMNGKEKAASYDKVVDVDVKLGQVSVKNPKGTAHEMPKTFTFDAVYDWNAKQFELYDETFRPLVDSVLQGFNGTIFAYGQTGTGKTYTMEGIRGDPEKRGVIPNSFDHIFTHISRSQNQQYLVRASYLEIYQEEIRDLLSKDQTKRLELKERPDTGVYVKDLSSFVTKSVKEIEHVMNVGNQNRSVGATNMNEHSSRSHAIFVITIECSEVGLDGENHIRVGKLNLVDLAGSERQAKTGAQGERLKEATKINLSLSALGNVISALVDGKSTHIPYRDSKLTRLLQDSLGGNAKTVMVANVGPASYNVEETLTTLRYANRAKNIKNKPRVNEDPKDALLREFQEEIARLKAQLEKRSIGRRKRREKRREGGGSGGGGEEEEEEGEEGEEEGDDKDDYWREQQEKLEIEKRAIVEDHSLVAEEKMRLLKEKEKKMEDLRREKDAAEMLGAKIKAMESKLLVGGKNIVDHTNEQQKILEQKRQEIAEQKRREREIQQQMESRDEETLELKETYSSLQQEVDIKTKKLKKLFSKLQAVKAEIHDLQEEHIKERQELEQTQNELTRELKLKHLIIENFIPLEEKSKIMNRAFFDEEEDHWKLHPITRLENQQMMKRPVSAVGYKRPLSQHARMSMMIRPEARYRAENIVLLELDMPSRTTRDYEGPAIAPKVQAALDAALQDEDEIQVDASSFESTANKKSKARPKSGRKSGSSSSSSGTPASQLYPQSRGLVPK
# Experiment: affinity purification with mass spectrometry; lysed cells immunoprecipitated with IgG or anti-KIF3B antibody (IP Kit, Dai-an); gel strips analysed on a Q-Exactive, Proteome Discoverer
row,binding,Substance
1,binds,CD44 (from UniProt P16070 21-742) (receptor)
2,binds,EGFR (from UniProt P00533 25-1210) (receptor)
3,binds,Integrin-beta1 (from UniProt P05556 21-798) (receptor)
